# Results are given in words; binding and its absence hold for the method and conditions named. In cells and extracts the contact can be indirect. Here binding means that the protein was enriched with, or labelled near, the bait; the list need not be complete. Sequences can lack the tags named with a protein.
# T1: TOPOISOMERASE Iα with 4HA tag (TOP1α-4HA) (Arabidopsis thaliana) (UniProt P30181)
# T1 sequence: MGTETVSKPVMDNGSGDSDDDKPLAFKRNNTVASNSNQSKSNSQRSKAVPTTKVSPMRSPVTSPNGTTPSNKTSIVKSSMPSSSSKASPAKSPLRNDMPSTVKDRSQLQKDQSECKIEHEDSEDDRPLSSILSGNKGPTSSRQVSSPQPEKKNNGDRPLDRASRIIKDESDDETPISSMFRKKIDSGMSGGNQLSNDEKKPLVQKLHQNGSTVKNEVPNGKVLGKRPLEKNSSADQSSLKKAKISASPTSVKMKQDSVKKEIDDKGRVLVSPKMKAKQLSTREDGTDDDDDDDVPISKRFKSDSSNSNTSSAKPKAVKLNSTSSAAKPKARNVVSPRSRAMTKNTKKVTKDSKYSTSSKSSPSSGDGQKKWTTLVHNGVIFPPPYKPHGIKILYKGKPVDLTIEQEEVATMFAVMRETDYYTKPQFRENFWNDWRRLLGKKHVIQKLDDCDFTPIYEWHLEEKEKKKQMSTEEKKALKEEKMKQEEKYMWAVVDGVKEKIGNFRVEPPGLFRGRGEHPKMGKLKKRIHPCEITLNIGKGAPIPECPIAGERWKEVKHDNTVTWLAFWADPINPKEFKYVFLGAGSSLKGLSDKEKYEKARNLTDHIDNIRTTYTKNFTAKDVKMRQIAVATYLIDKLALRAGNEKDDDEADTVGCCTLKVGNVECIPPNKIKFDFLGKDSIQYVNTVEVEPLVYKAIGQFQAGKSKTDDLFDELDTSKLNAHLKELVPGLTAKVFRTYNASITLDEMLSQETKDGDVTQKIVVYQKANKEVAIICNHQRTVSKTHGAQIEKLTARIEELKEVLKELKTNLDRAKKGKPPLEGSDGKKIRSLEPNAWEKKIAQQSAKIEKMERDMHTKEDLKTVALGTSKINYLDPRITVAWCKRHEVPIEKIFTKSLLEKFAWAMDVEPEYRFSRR
# B1: UP-… SUPPRESSOR 1 (UPF1), endogenous (enzyme, UniProt Q9FJR0 1-1254)
# chain: MDSQQSDLFDTASQPDTVADEYTFLEFNTQGDSEFDYQDFGSPTAWPTPSDSISIADVADRGEGGAAADHHSEASSPSSLSAGAGNGAKVGRGGVGGSGGVSSSSQVDALAAGVGNLNFEETGDDDGFDYGKNDFTEHACKYCGISNPACVVRCNVASCRKWFCNSRGNTSGSHIVNHLVRAKHKEVCLHRDSPLGETILECYNCGCRNVFLLGFISAKTDSVVVLLCRDPCLNVNALKDMNWDLSQWCPLIDDRCFLPWLVKVPSEQEQLRARQISAQQINKIEELWKTNPDATLEDLEKPGVDDEPQPVQPKYEDAYQYQNVFAPLIKLEADYDKMMKESQSKENLTVRWDIGLNKKRVAYFVFPKEENELRLVPGDELRLRYSGDAVHPSWQSVGHVIKLTAQEEVALELRANQGVPIDVNHGFSVDFVWKSTSFDRMQGAMKNFAVDETSVSGYIYHQLLGHEVEAQMVRNTLPRRFGVPGLPELNASQVNAVKSVLQKPISLIQGPPGTGKTVTSAAIVYHMAKQGQGQVLVCAPSNVAVDQLAEKISATGLKVVRLCAKSREAVSSPVEYLTLHYQVRHLDTSEKSELHKLQQLKDEQGELSSSDEKKYKNLKRATEREITQSADVICCTCVGAADLRLSNFRFRQVLIDESTQATEPECLIPLVLGVKQVVLVGDHCQLGPVIMCKKAARAGLAQSLFERLVTLGIKPIRLQVQYRMHPALSEFPSNSFYEGTLQNGVTIIERQTTGIDFPWPVPNRPMFFYVQLGQEEISASGTSYLNRTEAANVEKLVTAFLKSGVVPSQIGVITPYEGQRAYIVNYMARNGSLRQQLYKEIEVASVDSFQGREKDYIILSCVRSNEHQGIGFLNDPRRLNVALTRARYGIVILGNPKVLSKQPLWNGLLTHYKEHECLVEGPLNNLKQSMVQFQKPRKIYNDRRLFYGGGAGMIGNDNFGSGNPNADRRGSRGRAGGSYLPSGPPNGARPGLHPAGYPIPRVPLSPFPGGPPSQPYAIPTRGPVGAVPHAPQPGNHGFGAGRGTSVGGHLPHQQATQHNVGTIGPSLNFPLDSPNSQPSPGGPLSQPGYGSQAFRDGFSMGGISQDFLADDIKSQGSHDPYNMADFATQASPGGFAVDYATQGAHGAFPGNFMNQNSQGGYSRFSGINDFMSQEYMAHGGQGLFTQAGFIDSSQDDGQQNPYGVNNPNLQSQGLPNSLYSQPFAHYNTQPLNLSGPQQSQPNQSSQNPKHPYNG
# Biological target: T1, TOPOISOMERASE Iα with 4HA tag (TOP1α-4HA) (Arabidopsis thaliana)
# Test: affinity purification with mass spectrometry; CoIP coupled with LC-MS/MS of nuclear extracts of young siliques from top1α-10 gTOP1α-4HA; immunoprecipitated proteins eluted and analysed on a TripleTOF 5600
binder,measurement,value
B1,binding,binds
